Amino acid sequences for entries named in this document (tags omitted). A change or cut given only in a name is not applied to a line headed by its entry.
UniProt Q04899: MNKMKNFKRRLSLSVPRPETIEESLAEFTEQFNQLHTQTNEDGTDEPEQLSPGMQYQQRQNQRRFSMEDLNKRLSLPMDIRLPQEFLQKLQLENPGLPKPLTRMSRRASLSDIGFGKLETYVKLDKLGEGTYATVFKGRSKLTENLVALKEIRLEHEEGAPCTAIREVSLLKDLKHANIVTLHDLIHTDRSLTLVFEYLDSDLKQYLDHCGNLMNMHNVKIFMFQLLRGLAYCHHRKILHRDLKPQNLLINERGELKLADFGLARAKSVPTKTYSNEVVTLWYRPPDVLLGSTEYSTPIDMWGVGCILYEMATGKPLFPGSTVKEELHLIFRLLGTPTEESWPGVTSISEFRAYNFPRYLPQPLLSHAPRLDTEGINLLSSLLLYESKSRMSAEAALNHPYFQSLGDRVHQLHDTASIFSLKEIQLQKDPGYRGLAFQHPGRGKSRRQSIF
UniProt Q9WUD1: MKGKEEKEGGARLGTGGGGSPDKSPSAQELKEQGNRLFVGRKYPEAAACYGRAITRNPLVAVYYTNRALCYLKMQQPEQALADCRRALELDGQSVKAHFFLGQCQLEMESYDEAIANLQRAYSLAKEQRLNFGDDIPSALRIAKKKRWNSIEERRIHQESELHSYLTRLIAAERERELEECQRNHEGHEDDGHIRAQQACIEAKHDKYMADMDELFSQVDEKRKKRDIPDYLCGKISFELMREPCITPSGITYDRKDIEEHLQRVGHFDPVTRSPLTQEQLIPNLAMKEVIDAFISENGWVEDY

In publication PMC7140648:

Target: CDK18-FLAG S12D (constitutively active) (UniProt Q04899)
Assay: affinity purification with mass spectrometry; CDK18-FLAG K150R or S12D expressed in MCD4 cells, immunoprecipitated through their Flag tags; LC-MS/MS, MaxLFQ, K150R against S12D

binding: binds
Substance: STUB1 (STIP1 homology and U-box containing protein 1) (from UniProt Q9WUD1 1-304) (enzyme)

These are yes or no findings as the source states them, for the method shown. In cells and extracts the contact can be indirect. These calls come from enrichment with a bait or labelling near it, and not all partners need be listed.
